# Laboratory results: patent US20230295301A1
# Protein sequences, listed by entry. Tags and fused reporters are not part of them. Lines headed by an entry give the natural chain unless they say otherwise; changes in a name come on top.
# UniProt P16410: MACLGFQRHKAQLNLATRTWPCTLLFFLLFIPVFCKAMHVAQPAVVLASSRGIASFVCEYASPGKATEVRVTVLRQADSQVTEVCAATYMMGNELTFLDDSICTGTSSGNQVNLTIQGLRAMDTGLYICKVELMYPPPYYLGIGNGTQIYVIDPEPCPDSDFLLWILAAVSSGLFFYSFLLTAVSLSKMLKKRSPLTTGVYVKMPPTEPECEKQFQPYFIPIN
# Positions count from the first letter of the chain named. Results are given in words; binding and its absence hold for the method and conditions named. Some results given as binding are weak or reduced against the parent protein; the word gives no strength.
# B1: HuJS007-6 (antibody, V domains shown)
# VH: QVQLQESGPGLVKPSQTLSLTCTVSGYSISSGYYWNWIRQHPGKGLEWIGYIGYDGSNYYNPSLKSRVTISRDTSKNQFSLKLSSVTAADTAVYFCARNYYSGYFDFWGQGTTLTVSS
# VL: DIVMTQSPDSLAVSLGERATINCKASQNVGTYVAWYQQKPGQPPKLLIYSTSYRYSGVPDRFSGSGSGTDFTLTISSLQAEDVAVYYCHQYDTYPLTFGQGTKLEIK
# B2: HuJS007-29 (antibody, V domains shown)
# VH: B1 VH with T23A, S30T
# VL: DIQMTQSPSSLSASVGDRVTITCRASQNVGTYVAWYQQKPGKVPKPLIYSTSYRYSGVPSRFSGSGSGTDFTLTISSLQPEDVATYFCHQYDTYPLTFGAGTKLELK
# B3: HuJS007-26 (antibody, V domains shown)
# VH: B1 VH with Q16E, S25T, S30T, H41P, P42A
# VL: B1 VL with L46P, Y87F
# B4: HuJS007-13 (antibody, V domains shown)
# VH: B1 VH with S30T
# VL: B2 VL with S10F, V43A, D70E, V83F
# B5: HuJS007-22 (antibody, V domains shown)
# VH: B1 VH with Q16E, S25T, S30T, H41P, P42A
# VL: B2 VL with S10F, V43A, D70E, V83F
# B6: HuJS007-7 (antibody, V domains shown)
# VH: B1 VH
# VL: EIVMTQSPATLSVSPGERATLSCRASQNVGTYVAWYQQKPGQAPRPLIYSTSYRYSGIPARFSGSGSGTEFTLTISSLQSEDFAVYYCHQYDTYPLTFGQGTKLEIK
# B7: HuJS007-14 (antibody, V domains shown)
# VH: B1 VH with S30T
# VL: B2 VL with R24Q, V43A, L73F, V83I
# B8: HuJS007-25 (antibody, V domains shown)
# VH: B1 VH with Q16E, S25T, S30T, H41P, P42A
# VL: B6 VL
# B9: HuJS007-15 (antibody, V domains shown)
# VH: B1 VH with S30T
# VL: B1 VL
# B10: HuJS007-12 (antibody, V domains shown)
# VH: B1 VH with S30T
# VL: B2 VL with V43A, V83F
# B11: HuJS007-23 (antibody, V domains shown)
# VH: B1 VH with Q16E, S25T, S30T, H41P, P42A
# VL: B2 VL with R24Q, V43A, L73F, V83I
# B12: HuJS007-10 (antibody, V domains shown)
# VH: B1 VH with S30T
# VL: B1 VL with L46P, Y87F, Q100A, I106L
# B13: HuJS007-18 (antibody, V domains shown)
# VH: B1 VH with S30T
# VL: B6 VL with R24K, Y87F
# B14: HuJS007-28 (antibody, V domains shown)
# VH: B1 VH with T23A, S30T
# VL: B1 VL with L46P, Y87F, Q100A, I106L
# B15: HuJS007-20 (antibody, V domains shown)
# VH: B1 VH with Q16E, S25T, S30T, H41P, P42A
# VL: B2 VL
# B16: HuJS007-27 (antibody, V domains shown)
# VH: B1 VH with Q16E, S25T, S30T, H41P, P42A
# VL: B6 VL with R24K, Y87F
# B17: HuJS007-19 (antibody, V domains shown)
# VH: B1 VH with Q16E, S25T, S30T, H41P, P42A
# VL: B1 VL with L46P, Y87F, Q100A, I106L
# B18: HuJS007-16 (antibody, V domains shown)
# VH: B1 VH with S30T
# VL: B6 VL
# B19: HuJS007-11 (antibody, V domains shown)
# VH: B1 VH with S30T
# VL: B2 VL
# B20: HuJS007-24 (antibody, V domains shown)
# VH: B1 VH with Q16E, S25T, S30T, H41P, P42A
# VL: B1 VL
# B21: HuJS007-9 (antibody, V domains shown)
# VH: B1 VH
# VL: B6 VL with R24K, Y87F
# B22: HuJS007-21 (antibody, V domains shown)
# VH: B1 VH with Q16E, S25T, S30T, H41P, P42A
# VL: B2 VL with V43A, V83F
# B23: HuJS007-8 (antibody, V domains shown)
# VH: B1 VH
# VL: B1 VL with L46P, Y87F
# B24: HuJS007-17 (antibody, V domains shown)
# VH: B1 VH with S30T
# VL: B1 VL with L46P, Y87F
# Target: huCTLA-4 ECD (his-tag) (human) (UniProt P16410)
# Experiment: ELISA, coated huCTLA-4 his
row,binding,Binder
1,binds,B1
2,binds,B2
3,binds,B3
4,binds,B4
5,binds,B5
6,binds,B6
7,binds,B7
8,binds,B8
9,binds,B9
10,binds,B10
11,binds,B11
12,binds,B12
13,binds,B13
14,binds,B14
15,binds,B15
16,binds,B16
17,binds,B17
18,binds,B18
19,binds,B19
20,binds,B20
21,binds,B21
22,binds,B22
23,binds,B23
24,binds,B24
